Values quoted from earlier work, collected in US11752158B2 (priority 2007, dated 2023).
Some entries share one result that the patent states for a list of compounds. For at least one compound, name, drawing or mass did not settle the structure.

Biological target: T1, VDR (Homo sapiens, UniProt P11473)
T1 sequence (P11473 1-427): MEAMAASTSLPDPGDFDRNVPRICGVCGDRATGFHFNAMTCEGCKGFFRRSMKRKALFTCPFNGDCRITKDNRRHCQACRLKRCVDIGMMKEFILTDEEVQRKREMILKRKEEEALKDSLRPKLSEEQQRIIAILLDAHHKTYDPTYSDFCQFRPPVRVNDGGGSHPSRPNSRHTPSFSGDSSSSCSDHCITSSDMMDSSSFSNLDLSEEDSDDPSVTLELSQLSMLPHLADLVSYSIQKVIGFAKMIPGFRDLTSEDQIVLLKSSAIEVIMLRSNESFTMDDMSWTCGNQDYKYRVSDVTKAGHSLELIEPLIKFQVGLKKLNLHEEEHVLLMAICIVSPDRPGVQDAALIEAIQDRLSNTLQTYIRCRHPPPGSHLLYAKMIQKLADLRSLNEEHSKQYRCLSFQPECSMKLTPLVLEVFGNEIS
Conditions: estimated; relative to the Vitamin D hormones; cited from earlier work

C=C1CC[C@H](O)C/C1=C/C=C1\CCC[C@]2(C)[C@@H]([C@H](C)/C=C/[C@H](C)C(C)(C)O)CC[C@@H]12 [25-hydroxyvitamin D2]
affinities for the VDR, lower than those of the Vitamin D hormones: at least 100 fold
